Measurements taken from PMC7861564.
No constants are given. Whether binding was seen depends on the method and setting.

What was measured:
[1] = molecular target: T1, Agrobacterium tumefaciens single-stranded DNA binding protein (SSB) (Agrobacterium tumefaciens strain C58) (UniProt Q8UF87); assay: cross-linking; glutaraldehyde 0.0001%, TelA with AtSSB or AtSSBΔC7, 25 mM HEPES pH 7.6, 0.1 mM EDTA, 100 mM or 200 mM NaCl, 30°C 15 min then 5 min with crosslinker; SDS-PAGE and anti-His western blot; both purified
T1 sequence: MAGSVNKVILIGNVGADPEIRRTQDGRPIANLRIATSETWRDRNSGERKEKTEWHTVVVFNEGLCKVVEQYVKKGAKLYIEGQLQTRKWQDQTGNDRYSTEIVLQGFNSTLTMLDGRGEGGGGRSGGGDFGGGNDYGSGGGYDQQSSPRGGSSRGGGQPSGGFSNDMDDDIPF

[2] = molecular target: T1, Agrobacterium tumefaciens single-stranded DNA binding protein (SSB) (Agrobacterium tumefaciens strain C58); assay: native gel or EMSA; both purified

B1: TelA, telomere resolvase from Agrobacterium tumefaciens strain C58 (enzyme, UniProt Q7CWV1 1-442)
chain: MLAAKRKTKTPVLVERIDQFVGQIKEAMKSDDASRNRKIRDLWDAEVRYHFDNGRTEKTLELYIMKYRNALKAEFGPKSTPLAICNMKKLRERLNTYIARGDYPKTGVATSIVEKIERAEFNTAGRKPTVLLRIADFIAAMNGMDAKQDMQALWDAEIAIMNGRAQTTIISYITKYRNAIREAFGDDHPMLKIATGDAAMYDEARRVKMEKIANKHGALITFENYRQVLKICEDCLKSSDPLMIGIGLIGMTGRRPYEVFTQAEFSPAPYGKGVSKWSILFNGQAKTKQGEGTKFGITYEIPVLTRSETVLAAYKRLRESGQGKLWHGMSIDDFSSETRLLLRDTVFNLFEDVWPKEELPKPYGLRHLYAEVAYHNFAPPHVTKNSYFAAILGHNNNDLETSLSYMTYTLPEDRDNALARLKRTNERTLQQMATIAPVSRKG
[1]
  binding: no binding
[2]
  binding: no binding
